Measurements as given in PubChem BioAssay AID493014 (National Center for Advancing Translational Sciences (NCATS), 2011).
The other results are listed elsewhere or left out. The main result of the screen is listed elsewhere. These columns were measured beside it and carry no call. The list favours compounds with an active or inconclusive main result. The note in brackets gives the kind of curve behind each potency; many fits are weak.

Assay: qHTS Assay to Find Inhibitors of Chronic Active B-Cell Receptor Signaling
Conditions: ABC-DLBCL IkBa-CBG/CBR reporter, luminescence ratio (green luciferase fused to IkBa over red control in TMD8 lymphoma cells), 4 h
Outline: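 Compounds up to 46 uM were incubated four hours with TMD8 cells whose green CBG68 luciferase is fused to IkappaBalpha; red CBR luminescence normalised the signal, and concentration-effect curves were fitted to fusion, red and ratio data.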

[1] = measured here: CBR red luminescence, cell number

Structure (SMILES)	AC50 [1]	AC50 (measured here: IkBa-CBG green luminescence)
CC1CCCC(C)N1C(=O)CSc1nnc(C2CCCCC2)o1 (stereo not drawn)	0.562 µM [falling, full curve]	–
Cc1ccc(-c2onc3ccc(C4(C)OCCO4)cc23)cc1	29.1 µM [rising, single point]	–
COc1ccccc1CN1CCNC(=O)C1CC(=O)N(C)CC1CCOCC1 (stereo not drawn)	6.31 µM [falling, single point]	–
COC(=O)c1ccccc1NC(=O)COC(=O)C1CCCCC1	35.5 µM [rising, single point]	–
O=C(NCc1ccccn1)c1ccc(-c2ccccc2)cc1	1.12 µM [rising, full curve, poor fit]	–
CC1(C)SC(=S)N(NC(=O)Nc2cccc3ccccc23)C1N(O)C(=O)Nc1ccccc1 (stereo not drawn)	29.1 µM [falling, single point]	–
COc1ccc2[nH]c(C(=O)N/N=C/c3ccc(O)cc3O)cc2c1	11.2 µM [falling, partial curve, poor fit]	–
C/C(=N\NC(=O)c1cccc(S(=O)(=O)Nc2cccc(Cl)c2)c1)c1cccs1	20.6 µM [rising, partial curve, poor fit]	–
CC(C)Cc1csc(NC(=O)c2ccc(F)cc2)c1C(=O)O	0.517 µM [falling, full curve]	–
Cc1csc(NC(=O)CSc2ccc(-c3ccccn3)nn2)n1	4.47 µM [falling, full curve]	–
COc1cc2c(cc1OC)CN(CC(=O)Nc1ccc(F)cc1)CC2	7.08 µM [falling, partial curve]	–
Cc1nc2nc(SCC(=O)NCc3ccco3)nn2c(C)c1Cc1ccccc1	29.1 µM [falling, single point]	–
CCOc1ccc(Br)cc1C1=NN(C(C)=O)C(c2ccc([N+](=O)[O-])s2)O1 (stereo not drawn)	7.08 µM [falling, partial curve, poor fit]	–
CNCc1c(OCc2ccccc2F)ccc2ccccc12	35.5 µM [falling, single point]	–
CCN(CCNC(=O)C1CCN(S(=O)(=O)c2cccc3nsnc23)CC1)c1ccccc1	7.94 µM [falling, partial curve, poor fit]	–
COCc1cc(C)nc(Oc2ccccc2)c1C#N	4.47 µM [rising, full curve, poor fit]	–
O=C(COC(=O)c1ccco1)c1ccc2ccccc2c1	18.4 µM [rising, partial curve, poor fit]	–
Cc1c(C(=O)N2CCC[C@H]2CO)oc2c(F)cccc12	35.5 µM [falling, partial curve, poor fit]	–
Cc1ccc(O)c(-c2cc(-c3cccc(F)c3)n[nH]2)c1	4.11 µM [rising, partial curve, poor fit]	–
CCCCOc1ccc(CSc2nnc(C)n2N)cc1[N+](=O)[O-]	2 µM [falling, partial curve]	–
Cc1ccc(NC(=O)C2C3CCCC2C3c2ccccc2)cc1 (stereo not drawn)	16.4 µM [rising, partial curve, poor fit]	–

Structure (SMILES)	AC50 [1]	AC50 (measured here: IkBa-CBG green luminescence)
O/N=C/c1ccccc1OCc1ccccc1Cl	11.2 µM [rising, partial curve]	–
COc1ccc(CCN(C)CC(O)c2ccccc2)cc1OC (stereo not drawn)	5.62 µM [rising, single point]	–
Cc1ccc(-n2nnnc2-c2cnc(-c3cccnc3)nc2C(F)(F)F)cc1	32.6 µM [falling, single point]	–
Cc1cc(Br)ccc1NC(=O)c1cnc(N2CCN(c3ccccn3)CC2)c2ccccc12	5.62 µM [falling, full curve]	–
CC[C@]12c3[nH]c4cc(-c5ccco5)ccc4c3CCN1C(=O)[C@@H](CC(=O)NCCCn1ccnc1)C[C@@H]2C(=O)N1CCN(C(=O)C2CC2)CC1	20.6 µM [rising, single point]	–
CC1COC(Cn2c3ccccc3c3ccccc32)O1 (stereo not drawn)	5.01 µM [rising, partial curve, poor fit]	–
Cc1nc2nc(-c3ccc(Cl)cc3)cn2nc1C	29.1 µM [rising, partial curve, poor fit]	–
Cn1c2cc(Br)sc2c2cnn(Cc3c(F)cccc3Cl)c(=O)c21	29.1 µM [rising, single point]	13 µM [falling, partial curve, poor fit]
C=CCNc1oc(-c2ccc(OC)cc2)nc1C#N	10.3 µM [rising, partial curve, poor fit]	–
Cc1cccc(N=Nc2ccc(O)c3ncccc23)c1	2.59 µM [rising, full curve]	–
CCc1c(C)nc2nc(SCc3ccccc3Cl)[nH]n2c1=O	8.91 µM [falling, partial curve]	–
Cc1ccccc1NC(=O)COC(=O)CCC(=O)c1cccs1	32.6 µM [rising, partial curve, poor fit]	–
CCCCn1c(SCC(=O)N2CCCC2)nnc1-c1ccccc1	8.2 µM [falling, partial curve, poor fit]	–
O=C(CCNC(=O)c1ccccc1)N/N=C/c1ccc([N+](=O)[O-])cc1	11.2 µM [falling, partial curve, poor fit]	–
Cc1ccc(NC(=O)[C@H](CC(C)C)NC(=O)[C@@H]2Cc3ccccc3CN2)cc1	3.16 µM [rising, full curve, poor fit]	–
COc1ccccc1/C=C/c1nc(C#N)c(N(C)C)o1	7.08 µM [rising, full curve]	–
Cc1cccc(C)c1NC(=S)NNc1ncc(C(F)(F)F)cc1Cl	6.51 µM [falling, full curve]	–
O=C(CCl)N(c1ccccc1)c1c[nH]c2ccccc12	7.08 µM [falling, partial curve, poor fit]	–
O=S(=O)(Cc1cc(-c2ccccc2)no1)c1ccccc1	15.8 µM [falling, single point]	–
CCN1CCN(CCCOc2ccc(Cl)cc2Br)CC1	35.5 µM [falling, single point]	–
CC(=O)CSc1nc(N)c(C#N)c(-c2cccs2)c1C#N	2.31 µM [falling, partial curve, poor fit]	–

Molecules shown so far with a CF3 group, in the order listed:
Structure (SMILES)	AC50 [1]	AC50 (measured here: IkBa-CBG green luminescence)
Cc1ccc(-n2nnnc2-c2cnc(-c3cccnc3)nc2C(F)(F)F)cc1	32.6 µM [falling, single point]	–
Cc1cccc(C)c1NC(=S)NNc1ncc(C(F)(F)F)cc1Cl	6.51 µM [falling, full curve]	–
